The results in this text go back to PMC7073074.

Amino acid sequences for entries named in this document (tags omitted).
UniProt Q54K81: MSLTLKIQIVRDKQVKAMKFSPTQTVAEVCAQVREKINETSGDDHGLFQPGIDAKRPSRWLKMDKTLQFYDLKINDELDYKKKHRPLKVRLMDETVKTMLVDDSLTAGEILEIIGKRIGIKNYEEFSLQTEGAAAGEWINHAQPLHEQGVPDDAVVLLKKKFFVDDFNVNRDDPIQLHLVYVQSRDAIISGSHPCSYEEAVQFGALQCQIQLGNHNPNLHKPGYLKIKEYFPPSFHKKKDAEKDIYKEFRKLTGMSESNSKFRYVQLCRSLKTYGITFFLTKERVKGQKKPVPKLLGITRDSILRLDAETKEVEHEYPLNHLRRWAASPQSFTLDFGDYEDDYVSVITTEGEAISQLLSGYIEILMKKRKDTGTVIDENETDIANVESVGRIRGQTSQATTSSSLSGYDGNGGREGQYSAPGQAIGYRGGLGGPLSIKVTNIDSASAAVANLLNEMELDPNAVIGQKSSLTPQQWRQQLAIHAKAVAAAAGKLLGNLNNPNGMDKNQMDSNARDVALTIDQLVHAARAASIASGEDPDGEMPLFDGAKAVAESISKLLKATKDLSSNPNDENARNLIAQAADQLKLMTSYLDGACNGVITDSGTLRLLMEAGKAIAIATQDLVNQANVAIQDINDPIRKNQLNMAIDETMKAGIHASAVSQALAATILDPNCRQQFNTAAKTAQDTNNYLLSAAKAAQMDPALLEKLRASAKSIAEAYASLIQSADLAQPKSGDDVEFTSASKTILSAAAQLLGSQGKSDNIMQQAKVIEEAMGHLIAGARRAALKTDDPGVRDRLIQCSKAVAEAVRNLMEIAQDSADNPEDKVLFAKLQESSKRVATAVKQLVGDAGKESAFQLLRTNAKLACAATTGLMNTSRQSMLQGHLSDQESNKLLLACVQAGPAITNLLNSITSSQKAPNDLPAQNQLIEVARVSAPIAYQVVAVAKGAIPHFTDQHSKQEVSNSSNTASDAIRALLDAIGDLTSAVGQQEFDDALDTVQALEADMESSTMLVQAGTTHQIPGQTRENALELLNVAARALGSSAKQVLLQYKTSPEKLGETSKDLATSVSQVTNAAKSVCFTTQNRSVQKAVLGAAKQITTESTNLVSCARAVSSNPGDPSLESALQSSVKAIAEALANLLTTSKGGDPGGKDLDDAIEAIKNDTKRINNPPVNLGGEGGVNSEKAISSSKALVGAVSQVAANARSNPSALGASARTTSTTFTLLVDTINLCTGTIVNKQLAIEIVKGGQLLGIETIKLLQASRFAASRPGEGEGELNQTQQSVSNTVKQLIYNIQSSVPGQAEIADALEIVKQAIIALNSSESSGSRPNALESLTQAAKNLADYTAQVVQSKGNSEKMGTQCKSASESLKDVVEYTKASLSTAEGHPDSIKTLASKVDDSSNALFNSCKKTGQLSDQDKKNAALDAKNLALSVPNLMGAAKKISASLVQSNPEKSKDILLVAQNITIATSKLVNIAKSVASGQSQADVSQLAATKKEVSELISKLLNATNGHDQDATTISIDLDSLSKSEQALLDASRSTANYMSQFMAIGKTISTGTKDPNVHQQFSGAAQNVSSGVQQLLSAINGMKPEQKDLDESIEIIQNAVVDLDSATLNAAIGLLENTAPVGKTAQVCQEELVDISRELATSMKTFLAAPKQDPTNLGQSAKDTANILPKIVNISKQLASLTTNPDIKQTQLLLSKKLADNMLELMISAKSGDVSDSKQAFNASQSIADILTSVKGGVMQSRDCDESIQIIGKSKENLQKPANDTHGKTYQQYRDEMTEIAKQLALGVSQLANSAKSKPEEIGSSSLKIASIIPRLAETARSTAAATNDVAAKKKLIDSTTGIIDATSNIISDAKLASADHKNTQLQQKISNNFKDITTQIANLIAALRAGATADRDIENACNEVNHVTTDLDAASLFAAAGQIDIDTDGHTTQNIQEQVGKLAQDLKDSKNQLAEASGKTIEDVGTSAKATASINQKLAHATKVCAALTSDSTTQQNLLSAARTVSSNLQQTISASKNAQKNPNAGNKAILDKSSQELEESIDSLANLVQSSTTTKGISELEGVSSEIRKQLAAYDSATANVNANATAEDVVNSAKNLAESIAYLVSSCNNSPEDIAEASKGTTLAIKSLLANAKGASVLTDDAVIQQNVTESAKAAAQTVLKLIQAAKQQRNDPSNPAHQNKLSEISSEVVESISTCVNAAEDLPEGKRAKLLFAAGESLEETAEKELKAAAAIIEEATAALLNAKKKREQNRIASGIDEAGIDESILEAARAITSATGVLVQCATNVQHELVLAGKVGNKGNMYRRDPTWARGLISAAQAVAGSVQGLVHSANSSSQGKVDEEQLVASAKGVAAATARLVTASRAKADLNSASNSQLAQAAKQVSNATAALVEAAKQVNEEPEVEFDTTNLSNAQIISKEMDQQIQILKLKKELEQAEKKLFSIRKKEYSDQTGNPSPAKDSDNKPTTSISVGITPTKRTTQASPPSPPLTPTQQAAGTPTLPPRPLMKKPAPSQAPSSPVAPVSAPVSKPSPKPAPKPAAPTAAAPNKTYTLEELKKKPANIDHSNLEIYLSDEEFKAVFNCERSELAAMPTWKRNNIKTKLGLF

The target in experiment [1] is T1, FLAG-tagged coronin A (Dictyostelium discoideum) (UniProt P27133).
T1 sequence: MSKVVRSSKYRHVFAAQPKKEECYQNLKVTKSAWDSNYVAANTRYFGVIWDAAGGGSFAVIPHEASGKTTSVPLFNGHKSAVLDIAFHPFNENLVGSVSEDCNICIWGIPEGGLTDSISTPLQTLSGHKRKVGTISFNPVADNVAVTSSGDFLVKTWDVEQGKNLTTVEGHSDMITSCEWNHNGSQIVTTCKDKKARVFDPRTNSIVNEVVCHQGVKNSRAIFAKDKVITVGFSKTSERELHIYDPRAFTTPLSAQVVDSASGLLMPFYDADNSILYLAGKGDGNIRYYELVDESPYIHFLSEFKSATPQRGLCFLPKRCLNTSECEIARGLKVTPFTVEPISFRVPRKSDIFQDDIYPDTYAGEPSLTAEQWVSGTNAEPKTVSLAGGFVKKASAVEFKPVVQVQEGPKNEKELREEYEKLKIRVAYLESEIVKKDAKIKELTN
Briefly: affinity purification with mass spectrometry; anti-FLAG M2 on lysates of cells with FLAG-CorA or FLAG-CorAΔCC against untagged CorA; low salt TBS, 1% Triton X-100; cells harvested at 110 h.

Experiment [2] addresses T1, FLAG-tagged coronin A (Dictyostelium discoideum). Briefly: affinity purification with mass spectrometry; anti-FLAG M2 on lysates of corA- cells with FLAG-CorA against cells with untagged CorA; low salt TBS (25 mM NaCl), 1% Triton X-100, 4 °C; samples of all time points pooled; cutoff log2ratio > 1.5, q-value < 0.05.
Experiment [3] shares this target. Briefly: affinity purification with mass spectrometry; anti-FLAG M2 on lysates of cells with FLAG-CorA or FLAG-CorAΔCC against untagged CorA; low salt TBS, 1% Triton X-100; cells harvested at 48 h.

No constants are given. Whether binding was seen depends on the method and setting. Binding seen in cells or lysates may run through a third protein. A yes stands for co-enrichment or nearness to the bait. Other partners may have been found. Sequences can lack the tags named with a protein.

Regarding “actobindin-B/C (Dictyostelium discoideum (endogenous))”, the binding result in experiment [1] and in experiment [2] was “binds” in each case.
For talin-B (from UniProt Q54K81 1-2614), the binding entry in experiment [3] and in experiment [2] was “binds” each time.
